Data published in article PMC6351565.
No constants are given. Whether binding was seen depends on the method and setting. Binding seen in cells or lysates may run through a third protein. Some binding calls cover weakened binding; strength is not graded here.

Sequences of proteins named here, by UniProt entry; tags and fusion partners are left off. A change or cut given only in a name is not applied to a line headed by its entry. A line that says so, or that is headed by a name, gives the form on record, which may keep a tag or linker.
WT-IRSp53-STREP (Q9UQB8-4, form named): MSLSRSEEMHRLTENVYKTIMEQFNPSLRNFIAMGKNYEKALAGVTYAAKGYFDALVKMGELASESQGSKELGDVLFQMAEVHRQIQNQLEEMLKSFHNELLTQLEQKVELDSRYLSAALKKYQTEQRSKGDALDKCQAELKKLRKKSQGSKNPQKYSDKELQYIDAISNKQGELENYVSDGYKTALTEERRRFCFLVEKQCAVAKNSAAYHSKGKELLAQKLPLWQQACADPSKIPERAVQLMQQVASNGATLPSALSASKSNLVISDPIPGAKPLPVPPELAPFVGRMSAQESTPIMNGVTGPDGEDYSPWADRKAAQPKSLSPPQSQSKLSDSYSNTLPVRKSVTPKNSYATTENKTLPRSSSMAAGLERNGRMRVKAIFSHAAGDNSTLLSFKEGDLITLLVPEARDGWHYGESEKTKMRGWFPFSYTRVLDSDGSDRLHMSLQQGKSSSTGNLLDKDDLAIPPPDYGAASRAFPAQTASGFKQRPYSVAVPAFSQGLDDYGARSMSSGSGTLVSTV

Target: M2345-FLAG (human (from the printed UniProt entry)) (UniProt Q9UQB8)
Assay: pull-down; dual tag (FLAG, STREP) purification; wild-type and M2345 subunits expressed in HEK293T cells from a single vector with an IRES between the two coding sequences

WT-IRSp53-STREP (from UniProt Q9UQB8-4 1-521)
binding: binds
